About 5,400 (1.8%) of roughly 300,000 compounds were called active. The shares of active, inactive and inconclusive entries below differ from those in the screen. Calls come from the whole dose curve; tested in HEK293 cells. A potency beside an inconclusive call is a rough fit, not a confirmed value.
Assay: qHTS for inhibitors of binding or entry into cells for Marburg Virus
Conditions: Marburg virus pseudotyped entry inhibition, cell reporter; series mostly up to 37.8 µM
For `Cc1ccc(C(=O)Nc2cccc(C(=O)O)c2)cc1S(=O)(=O)N1CCCCC1`, the Potency was inconclusive: 11.2 µM [inhibitor, partial curve, poor fit].
In the case of `N/C(=N\NC(=O)Nc1ccccc1)c1ccccn1`, the Potency is reported as inconclusive: 5.62 µM [activator, single point].
With `Cc1cccc(NC(=O)c2cc(-c3cccnc3)nc3c(C)cccc23)n1` the Potency was inconclusive: 25.1 µM [inhibitor, single point].
With `O=C(Nc1cccc(NC(=O)c2cccs2)c1)c1ccc([N+](=O)[O-])o1` the Potency was inconclusive: 11.2 µM [inhibitor, partial curve, poor fit].
For `COc1ccc2nc(NC(=O)C3=NN(c4ccccc4)C(=O)CC3)sc2c1`, the Potency was “inactive”.
With `Cc1csc2nc(O)c(C(=O)NCCCc3ccccc3)c(=O)n12` the Potency was inconclusive: 6.31 µM [activator, single point].
In the case of `CCOc1ccc(NC(=O)CN2CCN(CC(=O)Nc3ccc4c(c3)OCCO4)CC2)cc1`, the Potency is reported as inconclusive: 15.8 µM [activator, single point].
For `COc1ccc(S(=O)(=O)CC2(O)CCN(C(=O)CC(C)C)CC2)cc1`, the Potency was inconclusive: 14.1 µM [activator, single point].
With `CCOc1c(CC2C(=O)Nc3ccc(Br)cc32)cccc1OC` (centres undefined) the Potency was “inactive”.
With `NNC(=O)CCn1nnc2ccccc21` the Potency was “inactive”.
In the case of `COc1ccc(CN2C(=O)NC(=O)/C(=C/c3ccc([N+](=O)[O-])s3)C2=O)cc1`, the Potency is reported as inconclusive: 17.8 µM [inhibitor, partial curve, poor fit].
In the case of `Cc1cccc(NC(=O)c2c(C)nc3ccccn23)c1`, the Potency is reported as inconclusive: 28.2 µM [activator, single point].
For `O=S(=O)(c1cccc(S(=O)(=O)N2CCC(Cc3ccccc3)CC2)c1)N1CCOCC1`, the Potency was inconclusive: 0.316 µM [activator, partial curve, poor fit].
With `CCOC(=O)c1cnc2c(-c3cccc(Br)c3)cnn2c1C` the Potency was inconclusive: 11.2 µM [activator, partial curve, poor fit].
In the case of `COCCn1c(SCC(=O)N2CCCc3ccccc32)nnc1-c1ccoc1C`, the Potency is reported as “inactive”.
For `COc1ccc(COc2cc(-c3cccc(OC)c3)nc3ccc(N)cc23)cc1`, the Potency was inconclusive: 5.17 µM [inhibitor, partial curve, poor fit].
With `CCOc1ccccc1N1CCN(CC(O)COc2ccc3c(C)cc(=O)oc3c2)CC1` (centres undefined) the Potency was “inactive”.
In the case of `COC(=O)c1ccc(NCc2cc(O)ccc2O)cc1`, the Potency is reported as inconclusive: 3.98 µM [inhibitor, full curve].
For `CCOc1ccc2[nH]c3ncccc3c(=O)c2c1`, the Potency was inconclusive: 35.5 µM [inhibitor, single point].

From PubChem BioAssay AID540276 (National Center for Advancing Translational Sciences (NCATS), 2011)
Potency is the fitted concentration of half-maximal effect.
